Not every detail of the peptide structures is certain; ends, links or a residue may be inferred. Where a SMILES comes first, the peptide text is derived from it. Bridges are numbered along the chain shown (N, C = ends). [ ]: non-standard residue; d: D form.
Assays:
Assay type in all cases: in vivo
insulin = assay: Suppression of growth hormone, glucagon and insulin (arginine-stimulated, nembutal rats): insulin; details: arginine challenge
Method: (§1) Albino male rats are arranged in three groups (nine rats/group) and injected i.p. with nembutal at 50mg/kg. 15 minutes after the nembutal injection they are injected s.c. according to group with (a) test compound, typically 10-2000 μg/kg.; (b) SRIF 200 μg/kg.; or (c) physiological saline. 10 minutes later 0.5 ml. of arginine (300 mg/ml., pH 7.2) is injected into the heart. The rats are decapitated 5 minutes after receiving the arginine, and the blood is collected into Trasylol-EDTA. Appropriate aliquots are then assayed for growth hormone, glucagon and insulin. […] Comparisons between control and experimental values are statistically evaluated by the analysis of variants method and statistical significance (p) at 0.05 or lower is used as the index of activity.

growth hormone = assay: Suppression of growth hormone, glucagon and insulin (arginine-stimulated, nembutal rats): GH; details: 15 minutes after dose, arginine challenge
Method: as §1

growth hormone (GH) = assay: Suppression of growth hormone (duration of activity after sc injection); details: 1 mg/kg. sc, nonfasted male rats
Method: A subcutaneous (sc) injection of peptide solubilized or suspended in physiological saline, is given to Charles River CD® nonfasted male rats. Matched saline control solution sc injected rats serve as control animals so that every experimental rat is paired with a control rat. The rats are kept in separate cages and 20 minutes before the end of the test time period they are given an intraperitoneal (i.p.) injection of Nembutal® at a dose of 50 mg/kg. Blood samples are obtained by cardiac puncture and the plasma separated for the radioimmunoassay of growth hormone (GH) concentration (ng/ml.). Time periods after injection of 2, 4, 5, and 6 hours are generally used to test the duration of the activity of the peptide to suppress circulating peripheral GH levels. Comparisons between control and experimental GH values at each time are evaluated by the Student "t" test and statistical significance (p) at the 0.05 level or lower is used as the index of activity.

glucagon = assay: Suppression of growth hormone, glucagon and insulin (arginine-stimulated, nembutal rats): glucagon; details: arginine challenge
Method: as §1

Work on `C[C@@H](O)[C@@H]1NC(=O)[C@H](Cc2ccccc2)NC(=O)[C@H]([C@@H](C)O)NC(=O)[C@H](CCCCN)NC(=O)[C@@H](Cc2c[nH]c3ccccc23)NC(=O)[C@H](Cc2ccccc2)NC(=O)[C@H](Cc2ccccc2)NC(=O)[C@@H](Cc2ccc(O)cc2)NC(=O)[C@@H](CCCNC(=N)N)NC(=O)[C@@H](N)CSSC[C@@H](C(=O)O)NC(=O)[C@H](CO)NC1=O` [A, L-Cysteinyl-D-Arginyl-D-Tyrosyl-L-Phenylalanyl-L-Phenylalanyl-D-Tryptophyl-L-Lysyl-L-Threonyl-L-Phenylalanyl-L-Threonyl-L-Seryl-L-Cysteine (Cyclic 1-12) Disulfide] (H-C[dR][dY]FF[dW]KTFTSC-OH; disulfide 1-12) yielded an Insulin (insulin; 10 μg/kg. s.c.) of 312 ± 52 μU/ml, an Insulin (insulin; 100 μg/kg. s.c.) of 127 ± 20 μU/ml and an Insulin (insulin; 2000 μg/kg. s.c.) of 97 ± 18 μU/ml. The GH (growth hormone; 10 μg/kg. s.c.) was 11 ± 3 ng/mL, the GH (growth hormone; 2000 μg/kg. s.c.) was 20 ± 2 ng/mL and the “plasma growth hormone (GH) concentration, 2 Hr.” value (growth hormone (GH); 2 Hr. after injection) was 17 ± 8 ng/mL. For the same molecule, the “plasma growth hormone (GH) concentration, 4 Hr.” value (growth hormone (GH); 4 Hr. after injection) was 23 ± 8 ng/mL, the “plasma growth hormone (GH) concentration, 5 Hr.” value (growth hormone (GH); 5 Hr. after injection) was 32 ± 7 ng/mL and the “plasma growth hormone (GH) concentration, 6 Hr.” value (growth hormone (GH); 6 Hr. after injection) was 74 ± 14 ng/mL. The Glucagon (glucagon; 10 μg/kg. s.c.) was 39 ± 7 pg/mL, the Glucagon (glucagon; 100 μg/kg. s.c.) was 24 ± 4 pg/mL and the Glucagon (glucagon; 2000 μg/kg. s.c.) was 8 ± 5 pg/mL.

Reference: US4122077A, “Somatostatin analogs” (American Home Products Corporation, priority 1977, dated 1978)
